Measured values from paper PMC5612113.
Results are given in words; binding and its absence hold for the method and conditions named. Some entries that bind do so weakly or less than the wild type.

How the values were obtained:
Test in all cases: Tango membrane protein-protein interaction assay; one partner fused to TEV protease, the other to TEV site–rTA, co-expressed in PS1/PS2-deleted HTL cells; released rTA drives a luciferase reporter; normalised to Renilla luciferase, WT set at 100%
[1] = biological target: Notch2 TM helix-containing fragment, Notch2(1666–1710) (human) (UniProt Q04721)
[2] = biological target: Notch3 TM helix-containing fragment, Notch3(1629–1675) (human) (UniProt Q9UM47)
[3] = biological target: Notch4 TM helix-containing fragment, Notch4(1432–1481) (human) (UniProt Q99466)

B1: Notch2 TM helix-containing fragment, Notch2(1666–1710) (domain or fragment, UniProt Q04721 1666-1710)
chain: VVSESLTPERTQLLYLLAVAVVIILFIILLGVIMAKRKRKHGSLW
With B1 the binding [1] was “binds”.

B2: Notch3 TM helix-containing fragment, Notch3(1629–1675) (domain or fragment, UniProt Q9UM47 1629-1675)
chain: VRGEPLEPPEPSVPLLPLLVAGAVLLLVILVLGVMVARRKREHSTLW
For B2, the binding [2] was “binds”.

B3: Notch4 TM helix-containing fragment, Notch4(1432–1481) (domain or fragment, UniProt Q99466 1432-1481)
chain: VHPHAGTAPPANQLPWPVLCSPVAGVILLALGALLVLQLIRRRRREHGAL
For B3, the binding [3] was “binds”.
